2 substances from PMC2970546 can be followed below.

Results are given in words; binding and its absence hold for the method and conditions named. A result given as binding can be weak or reduced; the word gives no strength.

The target in assay [1] is T1, human septin 2 (human) (UniProt Q15019).
T1 sequence: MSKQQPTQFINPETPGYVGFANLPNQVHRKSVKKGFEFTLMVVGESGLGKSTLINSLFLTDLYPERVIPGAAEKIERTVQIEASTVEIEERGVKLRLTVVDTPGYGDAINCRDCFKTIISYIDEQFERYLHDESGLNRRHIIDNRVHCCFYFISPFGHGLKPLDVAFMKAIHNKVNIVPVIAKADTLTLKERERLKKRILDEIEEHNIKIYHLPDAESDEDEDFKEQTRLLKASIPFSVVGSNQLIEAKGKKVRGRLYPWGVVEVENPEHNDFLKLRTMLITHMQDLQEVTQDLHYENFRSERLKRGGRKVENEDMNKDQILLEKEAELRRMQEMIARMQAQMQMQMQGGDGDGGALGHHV
As to the kind of experiment: two-hybrid; LexA-septin bait (modified pBTM116) in yeast L40 screened against human fetal brain and human leukocyte cDNA libraries (pACT2); minimal medium without Trp, Leu, His, with 5 mM 3-AT; every clone confirmed one-to-one with its bait by beta-galactosidase filter assay, empty bait vector as control.

For assay [2], the target named is T2, human septin 6 (human) (UniProt Q14141).
T2 sequence: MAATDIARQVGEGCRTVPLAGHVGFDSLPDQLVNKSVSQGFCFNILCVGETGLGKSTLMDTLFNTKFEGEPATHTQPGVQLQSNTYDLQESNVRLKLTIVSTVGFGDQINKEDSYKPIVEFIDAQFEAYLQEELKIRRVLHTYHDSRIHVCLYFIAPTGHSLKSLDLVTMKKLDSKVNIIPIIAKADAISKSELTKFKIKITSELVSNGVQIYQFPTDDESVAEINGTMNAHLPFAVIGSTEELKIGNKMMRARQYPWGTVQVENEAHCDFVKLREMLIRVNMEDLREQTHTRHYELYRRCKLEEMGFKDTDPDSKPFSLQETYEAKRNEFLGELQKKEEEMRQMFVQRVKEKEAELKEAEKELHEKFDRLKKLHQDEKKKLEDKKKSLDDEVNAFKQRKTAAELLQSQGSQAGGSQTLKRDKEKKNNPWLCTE
The description is as above.

As to PC-S/K-I (human), the binding result in assay [1] is listed as “binds”.

In the case of “SEPT4(101-478) (from UniProt O43236-1) (domain or fragment)”, the binding result in assay [2] is “binds”.
